PubChem BioAssay AID1053208 – Peter MacCallum Cancer Centre – 2014
Shown is one part, drawn at random, of about 17,000 reagents tested. 788 of all reagents (4.7%) count as active. 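Calls rest on z-score classes alone; an extra cut-off of viability at most 70% of control was not applied to them.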 Entries without a mark were called inactive. Reagents against one gene are numbered here. A reagent listed more than once was tested more than once; the source does not tell the runs apart. No sequences are given here.

Screen: 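Genes whose silencing cuts survival of bone tumour cells only with doxorubicin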 (primary screen)
System: mouse osteosarcoma cells, early-passage culture from an engineered mouse model of fibroblastic bone tumour
Knock-down reagent: siRNA pool against mouse genes, 40 nM
Timing: about 120 h (48 h before drug, then 72 h with drug)
Conditions: doxorubicin 100 nM for 72 h, roughly 30-40% inhibitory dose
Measured: 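Luminescent ATP signal taken as viability with or without 100 nM doxorubicin for 72 h; mean of two wells set against non-targeting siRNA and turned into robust z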
Direction: viability z-score with doxorubicin and doxorubicin viability vs non-targeting: higher = more viable cells under doxorubicin; viability z-score without drug: higher = more viable cells with knock-down alone; z-score of drug to no-drug ratio: higher = less drug sensitisation by knock-down
Active means: 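a pool counts as active when its viability z-score with doxorubicin is -2 or below and its z-score without drug lies between -2 and 2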

The first 4 entries, to show the layout:
combined z-score class	viability z-score with doxorubicin	viability z-score without drug	z-score of drug to no-drug ratio	doxorubicin viability vs non-targeting	gene symbol	reagent no.
no change with or without drug	0.22	0.67	-0.11	0.96	Mcam (melanoma cell adhesion molecule)	1
no change with or without drug	0.22	1.18	-0.45	0.96	A730036I17Rik (RIKEN cDNA A730036I17 gene)	1
high cell count without drug only	0.22	2.19	-1.01	0.96	Or8b1b (olfactory receptor family 8 subfamily B member 1B)	1
no change with or without drug	1.12	1.18	0.45	1.04	Gpr101 (G protein-coupled receptor 101)	1

Main list, repeating the preview:
combined z-score class	viability z-score with doxorubicin	viability z-score without drug	z-score of drug to no-drug ratio	doxorubicin viability vs non-targeting	gene symbol	reagent no.
no change with or without drug	0.22	0.67	-0.11	0.96	Mcam (melanoma cell adhesion molecule)	1
no change with or without drug	0.22	1.18	-0.45	0.96	A730036I17Rik (RIKEN cDNA A730036I17 gene)	1
high cell count without drug only	0.22	2.19	-1.01	0.96	Or8b1b (olfactory receptor family 8 subfamily B member 1B)	1
no change with or without drug	1.12	1.18	0.45	1.04	Gpr101 (G protein-coupled receptor 101)	1
no change with or without drug	0.67	0.34	0.56	1	Prdx6 (peroxiredoxin 6)	1
no change with or without drug	0.45	0.17	0.45	0.98	Utp3 (UTP3 small subunit processome component)	1
low cell count without drug only	-1.57	-2.53	0.22	0.8	Ech1 (enoyl coenzyme A hydratase 1, peroxisomal)	1
no change with or without drug	-0.45	-0.84	0.22	0.9	Plrg1 (pleiotropic regulator 1)	1
no change with or without drug	-0.22	-0.17	0	0.92	Rps27l (ribosomal protein S27-like)	1
high cell count without drug only	0.45	2.19	-0.79	0.98	D630003M21Rik (RIKEN cDNA D630003M21 gene)	1
no change with or without drug	-0.79	-0.67	-0.22	0.87	Or2r11 (olfactory receptor family 2 subfamily R member 11)	1
no change with or without drug	0.34	-1.18	1.35	0.97	Mgarp (mitochondria localized glutamic acid rich protein)	1
no change with or without drug	0.9	-0.34	1.35	1.02	Cycs (cytochrome c, somatic)	1
no change with or without drug	0.34	0.84	-0.11	0.97	Nfib (nuclear factor I/B)	1
no change with or without drug	1.35	-0.17	1.69	1.06	Nfib (nuclear factor I/B)	2
low cell count with doxorubicin only (active)	-2.14	-1.52	-1.24	0.75	Cldn23 (claudin 23)	1
no change with or without drug	1.01	0.51	0.79	1.03	Glis1 (GLIS family zinc finger 1)	1
high cell count without drug only	1.91	2.02	0.67	1.11	Ncapd2 (non-SMC condensin I complex, subunit D2)	1
no change with or without drug	1.69	0.34	1.57	1.09	Fam131a (family with sequence similarity 131, member A)	1
no change with or without drug	-0.67	0.34	-0.79	0.88	Parp16 (poly (ADP-ribose) polymerase family, member 16)	1
no change with or without drug	-1.01	-0.17	-0.9	0.85	Wdpcp (WD repeat containing planar cell polarity effector)	1
no change with or without drug	-1.35	0	-1.35	0.82	Taf12 (TATA-box binding protein associated factor 12)	1
no change with or without drug	-1.12	1.35	-1.8	0.84	Ube2d2b (ubiquitin-conjugating enzyme E2D 2B)	1
no change with or without drug	-1.57	-1.18	-0.79	0.8	Bccip (BRCA2 and CDKN1A interacting protein)	1
high cell count with doxorubicin only	2.7	0.34	2.7	1.18	Cpne8 (copine VIII)	1
no change with or without drug	-1.12	-0.17	-1.01	0.84	Tbx15 (T-box 15)	1
no change with or without drug	1.24	1.18	0.56	1.05	Stag3 (STAG3 cohesin complex component)	1
no change with or without drug	0.34	0.34	0.22	0.97	H1f4 (H1.4 linker histone, cluster member)	1
no change with or without drug	1.01	1.18	0.34	1.03	Hepacam2 (HEPACAM family member 2)	1
no change with or without drug	-0.9	-0.84	-0.22	0.86	Ilkap	1
no change with or without drug	-0.9	0.34	-1.01	0.86	Ilkap	1
no change with or without drug	0.79	-0.84	1.57	1.01	Or5p67 (olfactory receptor family 5 subfamily P member 67)	1
low cell count with doxorubicin only (active)	-2.02	-1.85	-0.9	0.76	Or4c29 (olfactory receptor family 4 subfamily C member 29)	1
no change with or without drug	1.01	-0.84	1.8	1.03	Hmga1 (high mobility group AT-hook 1)	1
